# Source: PubChem BioAssay AID1347423 (Functional Genomics Laboratory (NCATS/FGL), 2020)
# Hit rate of the full screen: of about 52,000 sequences, about 210 (0.4%) were called active.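 How the source made its calls: active means gene whose silencing raises cell survival under the drug, median off-target-corrected z-score across its silencing RNAs 2 or more; inactive means the rest.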 Some of the results follow.
# Assay: Resistance to Poly (ADP-Ribose) Polymerase inhibitor: Gene Identification via Genome-wide siRNA Screen
# Conditions: mouse BRCA2 R2336H ES cells, olaparib, CellTiter-Glo viability; stronger effect = higher value
# Outline: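 Mouse BRCA2 R2336H ES cells were reverse-transfected with siRNA (20 nM final), treated at 48 h with 500 nM olaparib, and read by CellTiter-Glo after 72 h. Scores: MAD-based z per siRNA, median per gene, seed off-target correction.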
row,Sequence,z-score
1,GCGAAAAGUCCACCACAUATT against Cyp51,inactive: -0.714
2,GGAAACGAUAGCCAAUAUUTT against 1700010M22Rik,inactive: -0.968
3,GGCUGUCAAGAAGCACAUCTT against Inhba,inactive: -0.00508
4,GGAAUAAACCUUGUGCAGUTT against Polh,inactive: 0.439
5,GCUUGUUUGUUAGAGCUAGTT against Gad1,inactive: 0.191
6,GCCACUCAGAGUGUGGAGUTT against Ddx20,inactive: -0.049
7,GGCAAUCCAUUUCUCAGUCTT against Tmprss5,inactive: -0.137
8,CCAGCGGGAGACUUACGAATT against LOC380969,inactive: 0.188
9,GGAAACCUGCUCAUAGUGGTT against Olfr1188,inactive: -0.295
10,GGAGAGACCUAAAUCUCACTT against Gp9,inactive: 0.0694
11,GGAUAUUAUCUUCAGACCATT against 9.83E+11,inactive: -0.375
12,GGUUCACAGAAAUGGAUGATT against A230056M16,inactive: -0.423
13,CCUAAUGUUUACCACAGACTT against Mrps25,inactive: -0.28
14,GGAGCUUAGACAAAAAGCCTT against 5830435K17Rik,inactive: -0.51
15,GGAGAUCUUGAGAUUGUAUTT against 5730590G19Rik,inactive: 1.01
16,GGGAAAAGAGCUGGAUUCUTT against AI415282,inactive: 1.15
17,GGCCCUUACUUCCACAUCATT against D11Wsu99e,inactive: -0.78
18,GGACAAAGCAAUCCACAUCTT against 2410080P20Rik,inactive: -1.77
19,CCUCGUUCCUUUGAAAUCATT against Gfi1,inactive: 1.73
20,GCUUUUCGCCCUGUGCUUATT against DXImx49e,inactive: -1.03
21,GGCUCUGGGAAUGACGACATT against Zbp1,inactive: 0.554
22,GGGUUGAUGUGGUAGAUGATT against Zfp185,inactive: -0.81
23,CGACCUGAGUGAAAAGAAGTT against Stk32c,inactive: -1.07
24,GCUACGCAUUGAGGAGCUATT against Pkn1,inactive: -0.213
25,GCCUGUUCGGGAACCUUAUTT against Olfr299,inactive: -2.69
26,GGUGAGGACCUUCUUCCUUTT against B3galt5,inactive: -0.0632

row,Sequence,z-score
1,CGAUAUCCUGAAACUGCCUTT against Tbx3,inactive: 0.556
2,CCAAAUGACAGCUAUGGCCTT against 1700012P16Rik,inactive: 0.812
3,AGACUGUAAAAGUCUUGUCTT against Ftl2,inactive: -1.03
4,GGAAUGUGAUGAUGUGAUUTT against 2810423O19Rik,inactive: -0.0671
5,GGAACUUUGAACUGAAGGGTT against Upb1,inactive: -0.651
6,GGGUAUCCCGCUUUUCUACTT against Slc6a18,inactive: -0.194
7,GGAAUUCGUAAUCACGCAATT against V1rd2,inactive: 2.83
8,CCUGAGUCAGAUUCAUUUATT against B430203M17Rik,inactive: 0.119
9,GGAGGAGGGAAUCAGAGAATT against 3830402I07Rik,inactive: -0.616
10,GGACAAAUUGGUUGUGCUATT against Olfr457,inactive: -0.641
11,GGCAACACUGUGGCUAAGUTT against 0710001P18Rik,inactive: -1.03
12,GGCCAUUCCUUUUCUGGAATT against Aim1,inactive: 1.2
13,GCCCAACAGCUACACCUUATT against Clra,inactive: -0.466
14,CCAGAUCAUCGUGCAGAAUTT against E4f1,inactive: -2.03
15,GCAGGAUCUGCCUAAGUCGTT against Arl7,inactive: -0.799
16,GGUCGGAAGCUGGUCUUUUTT against AW548124,inactive: 0.0368
17,CGUAUCCAAAAGUGAUUUCTT against Tigd5,inactive: -0.0581
18,GCGCAUUCUCCAUUAAACATT against Cyp4f16,inactive: -0.285
19,CCAAAGAGUUAUCGUUCUATT against 4933401I19Rik,inactive: 0.456
20,CCUUGGUGGUCUGAAAUAATT against BC013476,inactive: -0.936
21,GGAAUACCACAUGCUUUUGTT against 1110057K04Rik,inactive: -0.0543
22,GGAGUCUUGUCCAUGUAAUTT against Zfp52,inactive: -0.357
23,GCAGUCGAGCAUGAAACAATT against Atp5f1,inactive: -0.0174
24,GGCCUUGAAGCAGAAGUCUTT against Gfra1,inactive: 1.3
25,GCUCUACAUGUAGACCUGCTT against Mopt,inactive: 0.744
26,CGGUCACAGAGGAAGAAUATT against Ank2,inactive: 1.45

row,Sequence,z-score
1,GCAAUCAUGCCCAAGAAAUTT against Ches1,inactive: 0.863
2,GGGUUAUGAAGAGAAACUUTT against C430014D17Rik,inactive: -0.931
3,CGAACAGGUAAAUGUGAGCTT against 4921511D23Rik,inactive: -0.185
4,GGCCUGACCUUCAACAAGATT against Gab2,inactive: -1.97
5,GCUACUAAACAAGCCGGCATT against 4121402D02Rik,inactive: -1.64
6,CCGUGAUCCCUUUUCACCATT against 6030445D17Rik,inactive: -0.541
7,GGAAGAGCUGGACUUCUUCTT against Hoxb2,inactive: 0.282
8,GGAAUCUAGCUGAGAAAAUTT against Lepr,inactive: -0.29
9,GGAAAUCCAGAAGCGUGUGTT against Gtpbp3,inactive: -1.32
10,GGAAAGUCUCCAAGUUUGUTT against 9130017C17Rik,inactive: -0.154
11,GGGAGAGAUGUCAUUGCACTT against Ddx48,inactive: -3.44
12,GGGUAUCAGUACCAAUGUUTT against 9130022A01Rik,inactive: -0.798
13,GGUCCUGGAAGAUCCUUCUTT against Slc30a6,inactive: 0.184
14,GGACUUGGAAGAAGUAUAATT against Rbl2,inactive: -0.0509
15,GGGAUCCAUCCUUAUUGUUTT against Ybx2,inactive: 0.681
16,GGCUGAAAGAUUGUAUUGATT against ORF5,inactive: 0.988
17,GGAGGUUCAACAUGAAAAUTT against B230217C06Rik,inactive: -0.96
18,GCCCACACUUGCUAAUGAATT against Gm347,inactive: -1
19,GGAAAAGUAUUGGUAGACGTT against Tnfaip9,inactive: -1.01
20,GAGGGCUCUACAGUUUUUATT against Atp5g3,inactive: -0.536
21,GCUGCUUUCUUUGGAGGACTT against Olfr484,inactive: -0.487
22,GGUCAGCCAGACCAUUUCUTT against AA517853,inactive: -0.715
23,GCCAACCUGAAUAGACCUCTT against Glis3,inactive: 0.969
24,GGUGAUUGACAGAUUCUGATT against Nr4a1,inactive: 1.02
25,GCUUCCUCUACGACUACUATT against Tfcp2l4,inactive: -2.26
26,GGAAGGAUGGAGCAAAGCCTT against 2310050B20Rik,inactive: 0.666

# 4 consecutive records from above, for reference:
row,Sequence,z-score
2,GGGUUAUGAAGAGAAACUUTT against C430014D17Rik,inactive: -0.931
3,CGAACAGGUAAAUGUGAGCTT against 4921511D23Rik,inactive: -0.185
4,GGCCUGACCUUCAACAAGATT against Gab2,inactive: -1.97
5,GCUACUAAACAAGCCGGCATT against 4121402D02Rik,inactive: -1.64

# (listing goes on)

row,Sequence,z-score
1,GGUCAAGACUGAACUGUGATT against C630049M13,inactive: 2.02
2,CGGACAUCAUUGUUUUAAGTT against Rbbp7,inactive: -0.157
3,GCGCAGAGCAAAAUCGAAUTT against Gja1,inactive: 0.386
4,CGAUUCUUUACUAAAUUGGTT against Chek1,inactive: -0.213
5,GGGUCUAGAGACAUGUGGCTT against Saa3,inactive: -0.00552
6,GGGAUUUCUGGAGAAAAUGTT against 2010005H15Rik,inactive: -2.86
7,GCAGUCAGGAGUUGUUCAGTT against Btg1,inactive: -0.89
8,GGAAAAUCAGAUUUCAGAGTT against Lrrn1,inactive: 1.75
9,GCAAAUGACCUUCUCACACTT against Gga2,inactive: -0.0598
10,GCAGCAUAUGAACACAAUATT against A630007B06Rik,inactive: 1.51
11,CCUCAAUUUAGGCACUAAUTT against 2010005J08Rik,inactive: 1.96
12,GGGAGUGGCUCCUCAGAAATT against AW549877,inactive: 0.485
13,GGAGGAUGCUGAAAUUAUUTT against Atp6v0a1,inactive: -1.66
14,GCACUCGGCCAUAAAGUGUTT against Phkb,inactive: 2.58
15,GGGACCAAGGGAUAAACCATT against Atxn7l1,inactive: -1.01
16,GCCUGAUGGUGCUAAGACUTT against Olfr854,inactive: -0.787
17,GCGUAUUUGAGAAUUUAGATT against Atrx,inactive: 0.159
18,GGACUGUACUAUGGCUCUCTT against Nt5m,inactive: 1.32
19,GGCAUUUCCGACAGAGAUGTT against Cpne4,inactive: 0.597
20,GGGAAUACAUUCAUUAUCATT against Sema3c,inactive: 0.988
21,GGCAUCUGUUAUUGAAGUGTT against Vit,inactive: 0.771
22,UAGUGAGCAAGGAAUUGGATT against LOC435023,inactive: 0.195
23,GGCUGAAUGUCGCUUAGAGTT against 9030612E09Rik,inactive: 0.115
24,UGUUCCUAGGUCAGCUACUTT against Olfr1200,inactive: 1.81
25,GGGACCUCUACAGAGAUGUTT against Zfp113,inactive: -0.326
